Test results reported in the supplement of paper PMC4604168 (melanoma cell lines).
Some of the results follow. Repeats are few or missing, and single values can be far off.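 Imaging used 1,536-well plates; nuclei positive for cleaved PARP by antibody were divided by total DNA-stained nuclei to yield the apoptosis fraction. Doses for screening kept most cells viable, and cell lines differ markedly in resting and induced cleaved-PARP levels.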

System: UACC257
Assay: cleaved PARP positive nuclei fraction relative to DMSO control; melanoma cells; higher = more apoptosis
Details: library dose: low library concentration; 72 h

Structure (SMILES)	cleaved PARP positive nuclei fraction [%]
C[C@@H](Oc1cc(-c2cnn(C3CCNCC3)c2)cnc1N)c1c(Cl)ccc(F)c1Cl [Crizotinib] + CCN(CC)CCCCNc1ncc2cc(-c3cc(OC)cc(OC)c3)c(NC(=O)NC(C)(C)C)nc2n1 [PD173074] (first compound 0.2 µM, partner dose 0.1 µM)	180
Nc1ncn([C@H]2C[C@H](O)[C@@H](CO)O2)c(=O)n1 [decitabine] + O=c1cc(-c2cccc3c2Sc2ccccc2S3)oc(N2CCOCC2)c1 [KU55933] (first compound 0.1 µM, partner dose 1 µM)	144
O=C(O)c1ccc2c(c1)nc(Nc1cccc(Cl)c1)c1ccncc12 + O=C(O)c1ccc(-c2c[nH]c3ncc(-c4ccccc4)cc23)cc1C1CCCC1 [GSK650394] (first compound 0.4 µM, partner dose 0.16 µM)	110
Cc1cc(Nc2cc(N3CCN(C)CC3)nc(/C=C/c3ccccc3)n2)n[nH]1 + C=CCn1c(=O)c2cnc(Nc3ccc(N4CCN(C)CC4)cc3)nc2n1-c1cccc(C(C)(C)O)n1 [MK1775] (first compound 0.04 µM, partner dose 0.02 µM)	150
Nc1ccn([C@@H]2O[C@H](CO)[C@@H](O)C2(F)F)c(=O)n1 [gemcitabine] + O=C(Nc1cccc(Cl)c1)Nc1ncc(CCNc2ncnc3ccsc23)s1 [SNS314] (first compound 0.0004 µM, partner dose 0.0008 µM)	121
C[C@@H](Oc1cc(-c2cnn(C3CCNCC3)c2)cnc1N)c1c(Cl)ccc(F)c1Cl [Crizotinib] + CO[C@@H]1[C@H](N(C)C(=O)c2ccccc2)C[C@H]2O[C@]1(C)n1c3ccccc3c3c4c(c5c6ccccc6n2c5c31)C(=O)NC4 [Midostaurin] (first compound 0.2 µM, partner dose 0.08 µM)	107
